Here are results for six molecules from publication PMC2650728.

These are yes or no findings as the source states them, for the method shown. In cells and extracts the contact can be indirect. A result given as binding can be weak or reduced; the word gives no strength. Tags and fused reporters may be left off the sequences shown.

In assay [1] the target is T1, Stt7 containing a haemagglutinin (HA)-tag at its C-terminal end (Stt7-HA) (Chlamydomonas reinhardtii) (UniProt Q84V18).
T1 sequence: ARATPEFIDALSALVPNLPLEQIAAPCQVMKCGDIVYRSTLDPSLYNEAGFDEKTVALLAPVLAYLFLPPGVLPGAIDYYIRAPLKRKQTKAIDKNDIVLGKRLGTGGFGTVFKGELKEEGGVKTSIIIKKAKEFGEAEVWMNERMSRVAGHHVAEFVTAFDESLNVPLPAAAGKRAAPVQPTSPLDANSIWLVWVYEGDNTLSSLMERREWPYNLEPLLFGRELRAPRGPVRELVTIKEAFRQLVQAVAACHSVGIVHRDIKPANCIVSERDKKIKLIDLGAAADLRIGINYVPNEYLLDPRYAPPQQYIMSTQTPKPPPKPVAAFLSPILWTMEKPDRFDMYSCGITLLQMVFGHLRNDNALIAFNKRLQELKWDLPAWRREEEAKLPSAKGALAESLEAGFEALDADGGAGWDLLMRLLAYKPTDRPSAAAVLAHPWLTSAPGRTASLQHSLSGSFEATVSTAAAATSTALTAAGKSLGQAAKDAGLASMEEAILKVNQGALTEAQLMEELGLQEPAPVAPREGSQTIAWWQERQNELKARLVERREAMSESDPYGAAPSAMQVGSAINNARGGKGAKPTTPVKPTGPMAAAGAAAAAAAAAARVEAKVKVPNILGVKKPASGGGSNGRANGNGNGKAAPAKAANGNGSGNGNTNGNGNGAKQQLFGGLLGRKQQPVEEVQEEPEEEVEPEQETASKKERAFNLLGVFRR
The assay can be described thus: co-IP; thylakoid membranes (0.8 mg/ml) solubilized with n-dodecyl-β-maltoside, anti-HA-affinity matrix overnight at 4 °C, five washes in TBS-BSA (100 mM Tris/HCl pH 7.5, 150 mM NaCl, 0.05% BSA), immunoblot of the precipitate; Figure 3A with cells in state 1 or state 2, Figure 6C state not told. (In general: A western blot detects proteins with antibodies after separation by electrophoresis.)

Assay [2] concerns the target LHCII protein P11 (Chlamydomonas reinhardtii (endogenous)). The assay can be described thus: co-IP; reciprocal: solubilized thylakoid membranes from the Stt7-HA strain precipitated with antibodies against the thylakoid proteins, immunoblotted with HA antibodies.

On to “CP26 (Chlamydomonas reinhardtii (endogenous))”, for which, in assay [1], the binding result is reported as “binds”.
In the case of “LHCII protein P11 (Chlamydomonas reinhardtii (endogenous))”, the binding entry in assay [1] is “binds”.
On to “LHCII protein P13 (Chlamydomonas reinhardtii (endogenous))”, for which, in assay [1], the binding entry was “binds”.
In the case of “LHCII protein P17 (Chlamydomonas reinhardtii (endogenous))”, in assay [1], the binding result is “binds”.
For “Lhcbm5 (Chlamydomonas reinhardtii (endogenous))”, the binding entry in assay [1] was “binds”.

B1: Stt7 containing a haemagglutinin (HA)-tag at its C-terminal end (Stt7-HA) (enzyme, UniProt Q84V18 42-754)
chain: ARATPEFIDALSALVPNLPLEQIAAPCQVMKCGDIVYRSTLDPSLYNEAGFDEKTVALLAPVLAYLFLPPGVLPGAIDYYIRAPLKRKQTKAIDKNDIVLGKRLGTGGFGTVFKGELKEEGGVKTSIIIKKAKEFGEAEVWMNERMSRVAGHHVAEFVTAFDESLNVPLPAAAGKRAAPVQPTSPLDANSIWLVWVYEGDNTLSSLMERREWPYNLEPLLFGRELRAPRGPVRELVTIKEAFRQLVQAVAACHSVGIVHRDIKPANCIVSERDKKIKLIDLGAAADLRIGINYVPNEYLLDPRYAPPQQYIMSTQTPKPPPKPVAAFLSPILWTMEKPDRFDMYSCGITLLQMVFGHLRNDNALIAFNKRLQELKWDLPAWRREEEAKLPSAKGALAESLEAGFEALDADGGAGWDLLMRLLAYKPTDRPSAAAVLAHPWLTSAPGRTASLQHSLSGSFEATVSTAAAATSTALTAAGKSLGQAAKDAGLASMEEAILKVNQGALTEAQLMEELGLQEPAPVAPREGSQTIAWWQERQNELKARLVERREAMSESDPYGAAPSAMQVGSAINNARGGKGAKPTTPVKPTGPMAAAGAAAAAAAAAARVEAKVKVPNILGVKKPASGGGSNGRANGNGNGKAAPAKAANGNGSGNGNTNGNGNGAKQQLFGGLLGRKQQPVEEVQEEPEEEVEPEQETASKKERAFNLLGVFRR
With B1, in assay [2], the binding entry is recorded as “binds”.
